The test has as its target Aβ42 (aggregation state not stated at the place of use) (UniProt P05067). Nature of the test: co-immunoprecipitation, isolated nonTg cortical mitochondria treated with Aβ42 (0.8 µM).

Amino acid sequences for entries named in this document (tags omitted). Residues count along the entry.
UniProt P05067, residues 672-713: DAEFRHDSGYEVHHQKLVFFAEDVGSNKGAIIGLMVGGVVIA
UniProt Q99KR7, residues 30-206: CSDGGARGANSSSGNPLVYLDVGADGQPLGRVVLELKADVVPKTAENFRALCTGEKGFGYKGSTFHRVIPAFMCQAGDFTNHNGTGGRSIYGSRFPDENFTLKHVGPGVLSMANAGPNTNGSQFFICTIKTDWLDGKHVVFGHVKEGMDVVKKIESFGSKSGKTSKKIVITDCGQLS

Results are given in words; binding and its absence hold for the method and conditions named. In cells and extracts the contact can be indirect. Some entries that bind do so weakly or less than the wild type.

Experimental findings from patent publication US20100291074A1, “CYCLOPHILIN D-AMYLOID BETA INTERACTION POTENTIATES MITOCHONDRIAL DYSFUNCTION IN A TRANSGENIC MOUSE MODEL OF ALZHEIMER'S DISEASE” (COLUMBIA UNIVERSITY IN THE CITY OF NEW YORK, priority 2007, published 2010) are described below.

As to “mouse CypD, endogenous, in brain mitochondria and cultured cortical neurons of nonTg and Tg mAPP mice (from UniProt Q99KR7 30-206) (enzyme)”, the binding entry is recorded as “binds”.
